Measured values published in PubChem BioAssay (EPA / NIEHS).
This list was built around the results that the source calls inconclusive (neither active nor inactive); the mix of calls is not that of the screen. For some of these results: Potencies beside an inconclusive call are fits to weak or partial responses and may not hold up. Calls of active or inactive are those of the source. The calls were made as follows: active = hit-call score of the fitted dose curve at least 0.9, where 1 is the maximum; inconclusive = response in the unintended direction; inactive = score below 0.9.

Amino acid sequences for entries named in this document (tags omitted). A change or cut given only in a name is not applied to a line headed by its entry.
UniProt P31751: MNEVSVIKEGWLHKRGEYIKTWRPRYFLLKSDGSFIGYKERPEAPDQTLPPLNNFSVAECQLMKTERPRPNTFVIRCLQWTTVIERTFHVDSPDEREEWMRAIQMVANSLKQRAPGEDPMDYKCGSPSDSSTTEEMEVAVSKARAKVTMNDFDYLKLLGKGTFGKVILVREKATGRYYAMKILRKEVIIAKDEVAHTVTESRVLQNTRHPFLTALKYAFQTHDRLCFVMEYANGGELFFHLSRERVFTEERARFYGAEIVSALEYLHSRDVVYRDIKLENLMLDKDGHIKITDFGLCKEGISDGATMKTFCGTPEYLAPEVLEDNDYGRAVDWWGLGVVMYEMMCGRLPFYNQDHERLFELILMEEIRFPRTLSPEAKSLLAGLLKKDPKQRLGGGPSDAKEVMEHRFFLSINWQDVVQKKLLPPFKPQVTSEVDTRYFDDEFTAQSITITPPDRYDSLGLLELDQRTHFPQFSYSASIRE
UniProt P21709: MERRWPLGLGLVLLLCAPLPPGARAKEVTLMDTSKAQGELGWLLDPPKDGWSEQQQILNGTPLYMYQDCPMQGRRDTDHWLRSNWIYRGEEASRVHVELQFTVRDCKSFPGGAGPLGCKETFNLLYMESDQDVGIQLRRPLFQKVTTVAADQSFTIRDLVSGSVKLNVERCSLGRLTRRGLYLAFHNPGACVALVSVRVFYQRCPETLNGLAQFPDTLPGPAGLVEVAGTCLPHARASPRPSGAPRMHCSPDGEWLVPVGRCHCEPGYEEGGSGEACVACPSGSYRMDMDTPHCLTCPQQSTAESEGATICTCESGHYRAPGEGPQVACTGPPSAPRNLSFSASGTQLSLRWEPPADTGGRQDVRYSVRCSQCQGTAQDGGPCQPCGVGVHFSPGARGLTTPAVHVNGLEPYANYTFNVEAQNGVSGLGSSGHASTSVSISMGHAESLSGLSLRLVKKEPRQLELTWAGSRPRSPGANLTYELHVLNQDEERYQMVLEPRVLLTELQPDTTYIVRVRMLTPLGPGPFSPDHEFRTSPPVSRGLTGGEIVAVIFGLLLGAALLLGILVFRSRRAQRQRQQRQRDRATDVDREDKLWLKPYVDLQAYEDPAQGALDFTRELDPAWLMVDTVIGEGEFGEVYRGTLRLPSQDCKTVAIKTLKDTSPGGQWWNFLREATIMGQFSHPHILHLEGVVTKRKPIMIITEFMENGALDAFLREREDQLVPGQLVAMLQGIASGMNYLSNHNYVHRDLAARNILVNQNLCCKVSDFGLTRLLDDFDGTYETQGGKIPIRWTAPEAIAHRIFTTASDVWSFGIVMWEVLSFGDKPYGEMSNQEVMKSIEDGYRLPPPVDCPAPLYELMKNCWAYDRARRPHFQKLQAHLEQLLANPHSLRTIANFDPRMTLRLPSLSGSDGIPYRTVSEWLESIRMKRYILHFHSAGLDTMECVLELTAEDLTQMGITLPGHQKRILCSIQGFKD
UniProt O15379: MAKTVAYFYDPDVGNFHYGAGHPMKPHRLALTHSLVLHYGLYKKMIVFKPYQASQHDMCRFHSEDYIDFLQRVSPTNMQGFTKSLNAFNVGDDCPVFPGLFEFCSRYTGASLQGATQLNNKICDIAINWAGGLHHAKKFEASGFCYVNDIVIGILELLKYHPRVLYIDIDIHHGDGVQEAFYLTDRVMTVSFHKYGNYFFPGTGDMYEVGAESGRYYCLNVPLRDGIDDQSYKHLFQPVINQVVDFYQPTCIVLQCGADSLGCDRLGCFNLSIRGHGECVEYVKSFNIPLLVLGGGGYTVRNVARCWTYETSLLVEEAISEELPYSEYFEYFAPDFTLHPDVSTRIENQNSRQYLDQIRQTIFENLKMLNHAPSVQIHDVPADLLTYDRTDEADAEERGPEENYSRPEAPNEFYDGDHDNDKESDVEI
UniProt Q05209: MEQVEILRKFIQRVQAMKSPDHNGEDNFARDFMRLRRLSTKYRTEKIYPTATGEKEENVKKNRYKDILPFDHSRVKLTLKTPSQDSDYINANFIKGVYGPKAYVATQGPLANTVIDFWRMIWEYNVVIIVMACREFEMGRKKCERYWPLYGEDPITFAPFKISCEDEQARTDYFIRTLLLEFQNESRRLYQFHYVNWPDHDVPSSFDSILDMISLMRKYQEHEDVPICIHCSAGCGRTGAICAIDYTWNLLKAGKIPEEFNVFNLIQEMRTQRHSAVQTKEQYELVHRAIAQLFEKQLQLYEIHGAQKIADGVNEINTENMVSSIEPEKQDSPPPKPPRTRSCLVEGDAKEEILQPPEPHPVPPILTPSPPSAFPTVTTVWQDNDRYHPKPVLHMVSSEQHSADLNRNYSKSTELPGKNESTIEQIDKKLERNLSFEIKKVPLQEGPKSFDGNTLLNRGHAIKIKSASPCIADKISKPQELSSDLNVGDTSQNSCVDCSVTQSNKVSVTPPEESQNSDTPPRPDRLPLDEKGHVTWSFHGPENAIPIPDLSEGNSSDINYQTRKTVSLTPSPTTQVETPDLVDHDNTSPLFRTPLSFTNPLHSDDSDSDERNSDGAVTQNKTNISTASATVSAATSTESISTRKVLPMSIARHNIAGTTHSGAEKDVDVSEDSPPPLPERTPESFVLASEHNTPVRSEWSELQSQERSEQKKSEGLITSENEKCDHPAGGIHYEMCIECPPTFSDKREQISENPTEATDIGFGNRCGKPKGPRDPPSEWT
UniProt Q12923: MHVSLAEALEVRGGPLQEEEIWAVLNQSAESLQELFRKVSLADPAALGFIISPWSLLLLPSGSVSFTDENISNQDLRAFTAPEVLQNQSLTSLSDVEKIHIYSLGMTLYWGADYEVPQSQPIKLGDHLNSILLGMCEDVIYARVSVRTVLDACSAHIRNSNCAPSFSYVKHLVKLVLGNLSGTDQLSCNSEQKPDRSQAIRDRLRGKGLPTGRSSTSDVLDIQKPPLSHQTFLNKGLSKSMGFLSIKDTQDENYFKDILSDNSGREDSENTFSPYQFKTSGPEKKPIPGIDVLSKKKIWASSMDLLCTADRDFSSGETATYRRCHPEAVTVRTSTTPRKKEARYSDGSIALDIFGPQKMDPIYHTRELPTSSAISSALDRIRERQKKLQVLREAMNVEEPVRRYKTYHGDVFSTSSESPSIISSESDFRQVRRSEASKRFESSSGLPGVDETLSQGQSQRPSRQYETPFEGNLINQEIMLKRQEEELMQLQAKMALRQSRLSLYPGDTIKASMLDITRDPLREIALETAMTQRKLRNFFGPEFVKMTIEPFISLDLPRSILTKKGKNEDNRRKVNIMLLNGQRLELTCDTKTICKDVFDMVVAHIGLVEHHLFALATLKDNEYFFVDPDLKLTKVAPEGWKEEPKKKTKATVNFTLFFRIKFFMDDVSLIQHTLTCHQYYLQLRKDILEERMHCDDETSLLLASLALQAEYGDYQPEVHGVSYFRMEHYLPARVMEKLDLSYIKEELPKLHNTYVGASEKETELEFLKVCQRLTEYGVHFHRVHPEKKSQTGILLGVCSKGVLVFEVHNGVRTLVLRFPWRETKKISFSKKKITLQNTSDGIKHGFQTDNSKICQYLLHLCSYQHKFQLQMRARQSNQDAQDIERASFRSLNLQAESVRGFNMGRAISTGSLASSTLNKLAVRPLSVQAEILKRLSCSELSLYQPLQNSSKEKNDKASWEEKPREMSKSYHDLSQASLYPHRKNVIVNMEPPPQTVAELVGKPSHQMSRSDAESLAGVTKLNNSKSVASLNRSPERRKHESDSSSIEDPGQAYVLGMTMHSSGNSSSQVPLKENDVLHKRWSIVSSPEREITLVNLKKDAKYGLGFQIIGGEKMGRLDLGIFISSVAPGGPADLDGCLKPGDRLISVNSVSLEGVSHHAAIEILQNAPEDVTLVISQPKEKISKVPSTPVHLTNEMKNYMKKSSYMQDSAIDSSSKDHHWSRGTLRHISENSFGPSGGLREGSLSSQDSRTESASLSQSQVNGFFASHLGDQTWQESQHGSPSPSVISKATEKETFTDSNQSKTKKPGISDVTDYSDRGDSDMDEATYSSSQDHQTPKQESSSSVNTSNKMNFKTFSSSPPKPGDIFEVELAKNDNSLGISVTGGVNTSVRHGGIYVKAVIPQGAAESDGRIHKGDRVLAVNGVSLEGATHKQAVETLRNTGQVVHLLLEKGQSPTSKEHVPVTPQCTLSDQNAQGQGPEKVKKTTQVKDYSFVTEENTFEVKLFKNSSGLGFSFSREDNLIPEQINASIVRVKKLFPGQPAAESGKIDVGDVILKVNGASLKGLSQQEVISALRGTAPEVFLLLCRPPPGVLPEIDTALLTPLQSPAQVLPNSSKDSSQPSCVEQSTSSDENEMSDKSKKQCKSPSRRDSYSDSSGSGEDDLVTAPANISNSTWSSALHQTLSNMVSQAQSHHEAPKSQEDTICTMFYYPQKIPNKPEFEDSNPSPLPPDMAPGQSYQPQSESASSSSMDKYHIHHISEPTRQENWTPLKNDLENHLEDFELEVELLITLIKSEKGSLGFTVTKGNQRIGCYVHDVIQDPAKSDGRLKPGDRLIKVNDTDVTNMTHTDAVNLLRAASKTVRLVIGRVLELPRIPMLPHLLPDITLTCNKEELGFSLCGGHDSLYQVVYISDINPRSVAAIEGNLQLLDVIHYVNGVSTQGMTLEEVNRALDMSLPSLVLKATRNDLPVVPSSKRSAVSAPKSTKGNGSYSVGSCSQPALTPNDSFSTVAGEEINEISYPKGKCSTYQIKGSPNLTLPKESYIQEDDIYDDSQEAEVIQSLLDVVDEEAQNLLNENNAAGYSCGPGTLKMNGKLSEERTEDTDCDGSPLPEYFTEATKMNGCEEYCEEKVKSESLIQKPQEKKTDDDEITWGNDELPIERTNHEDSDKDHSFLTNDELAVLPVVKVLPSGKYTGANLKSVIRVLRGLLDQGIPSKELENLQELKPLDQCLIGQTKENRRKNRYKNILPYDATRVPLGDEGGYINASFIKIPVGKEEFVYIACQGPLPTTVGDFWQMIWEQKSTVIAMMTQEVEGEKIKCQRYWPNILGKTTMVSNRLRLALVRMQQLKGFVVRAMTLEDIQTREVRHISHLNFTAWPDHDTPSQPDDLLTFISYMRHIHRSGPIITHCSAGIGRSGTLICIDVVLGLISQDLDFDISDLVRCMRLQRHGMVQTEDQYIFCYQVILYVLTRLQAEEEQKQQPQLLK
UniProt P29350: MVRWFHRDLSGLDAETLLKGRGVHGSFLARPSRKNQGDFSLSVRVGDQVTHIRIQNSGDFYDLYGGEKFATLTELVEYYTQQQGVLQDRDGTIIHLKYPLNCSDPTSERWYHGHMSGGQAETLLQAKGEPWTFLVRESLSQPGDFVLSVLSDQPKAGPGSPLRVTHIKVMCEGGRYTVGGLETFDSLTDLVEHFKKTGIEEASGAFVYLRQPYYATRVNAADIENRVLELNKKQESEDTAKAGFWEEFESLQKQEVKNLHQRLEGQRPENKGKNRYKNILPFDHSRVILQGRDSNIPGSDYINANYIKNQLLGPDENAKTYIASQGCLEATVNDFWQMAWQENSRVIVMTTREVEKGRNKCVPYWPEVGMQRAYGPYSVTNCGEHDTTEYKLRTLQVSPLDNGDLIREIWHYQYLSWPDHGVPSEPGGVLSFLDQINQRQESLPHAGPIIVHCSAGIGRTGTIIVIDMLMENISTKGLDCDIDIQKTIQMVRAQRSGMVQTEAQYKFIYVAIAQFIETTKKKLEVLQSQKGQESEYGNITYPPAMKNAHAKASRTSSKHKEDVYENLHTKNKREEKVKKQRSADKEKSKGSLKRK
UniProt P04629: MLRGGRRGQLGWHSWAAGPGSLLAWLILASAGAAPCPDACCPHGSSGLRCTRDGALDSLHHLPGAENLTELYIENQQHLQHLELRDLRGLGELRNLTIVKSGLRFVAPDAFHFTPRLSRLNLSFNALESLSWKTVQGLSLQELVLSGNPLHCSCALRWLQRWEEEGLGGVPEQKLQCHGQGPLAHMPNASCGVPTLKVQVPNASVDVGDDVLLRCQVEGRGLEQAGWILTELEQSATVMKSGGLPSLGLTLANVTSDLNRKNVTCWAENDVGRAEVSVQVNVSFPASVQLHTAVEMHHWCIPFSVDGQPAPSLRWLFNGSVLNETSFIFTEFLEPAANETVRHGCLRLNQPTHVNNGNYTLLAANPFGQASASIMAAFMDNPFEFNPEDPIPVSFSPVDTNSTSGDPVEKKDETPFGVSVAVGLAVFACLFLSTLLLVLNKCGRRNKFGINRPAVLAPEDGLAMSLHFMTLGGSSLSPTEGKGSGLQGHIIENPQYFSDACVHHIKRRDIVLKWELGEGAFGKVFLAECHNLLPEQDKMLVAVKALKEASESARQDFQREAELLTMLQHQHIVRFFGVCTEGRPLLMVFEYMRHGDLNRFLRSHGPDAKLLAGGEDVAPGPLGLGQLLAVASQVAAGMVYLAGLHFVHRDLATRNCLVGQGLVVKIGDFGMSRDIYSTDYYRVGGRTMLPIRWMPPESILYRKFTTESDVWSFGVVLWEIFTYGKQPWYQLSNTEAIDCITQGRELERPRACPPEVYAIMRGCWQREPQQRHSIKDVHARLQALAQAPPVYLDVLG

Experiments:
[1] = target: human AKT serine/threonine Kinase 1 (AKT1), AKT1 (gene 207) (UniProt P31749); assay: NVS_ENZ_hAKT1: NovaScreen (NVS) Enzymatic Assay for human AKT serine/threonine Kinase 1 (AKT1) (AID 2283138)
Method in brief: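 Cell-free recombinant enzyme with substrate; activity read by fluorescence intensity after electrophoretic mobility shift separating substrate from product, 1 h after dosing. Single-concentration duplicates at 25 uM, then singleton concentration-response up to 50 uM; loss of signal versus DMSO.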

Caspase-3 (Homo sapiens) = Caspase-3 (Homo sapiens) (UniProt P42574); assay: NVS_ENZ_hCASP3: NovaScreen (NVS) Enzymatic Assay for human Caspase 3 (CASP3) (AID 2283139)
Method in brief: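 Recombinant human caspase-3 from E. coli with a fluorogenic substrate, read by fluorescence 1 h after dosing. Primary screen in duplicate at 25 uM. Actives (for example ≥30% inhibition) rerun as concentration-response up to 50 uM.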

[2] = target: human AKT serine/threonine Kinase 2 (AKT2), AKT2 (gene 208) (UniProt P31751); assay: NVS_ENZ_hAKT2: NovaScreen (NVS) Enzymatic Assay for human AKT serine/threonine Kinase 2 (AKT2) (AID 2283141)
Method in brief: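 Cell-free fluorescence/electrophoretic mobility shift readout of recombinant human AKT2 activity, 1 h after chemical dosing. Duplicate primary screen at 25 uM, then singleton concentration-response up to 50 uM; loss of signal versus DMSO baseline.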

[3] = target: human Ephrin type-A Receptor 1 (EphA1), EPHA1 (gene 2041) (UniProt P21709); assay: NVS_ENZ_hEphA1: NovaScreen (NVS) Enzymatic Assay for human Ephrin type-A Receptor 1 (EphA1) (AID 2283158);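 also: activity is signal loss versus DMSO meaning EphA1 kinase inhibition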
Method in brief: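 Biochemical kinase assay run cell-free; 1 h incubation; readout is fluorescence with mobility-shift separation of product. Concentration-response up to 50 uM for actives from a 25 uM screen.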

[4] = target: Histone deacetylase 3 (Homo sapiens) (UniProt O15379); assay: NVS_ENZ_hHDAC3: NovaScreen (NVS) Enzymatic Assay for human Histone Deacetylase 3 (HDAC3) (AID 2283163)
Method in brief: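 Recombinant human HDAC3 with fluorescent substrate, 1 h after dosing; product separated from substrate by electrophoretic mobility shift and read by fluorescence. Primary screen at 25 uM in duplicate; actives (e.g. ≥30% inhibition) retested in concentration-response up to 50 uM.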

[5] = target: Mitogen-activated protein kinase 3 (Homo sapiens) (UniProt P27361); assay: NVS_ENZ_hMAPK3: NovaScreen (NVS) Enzymatic Assay for human Mitogen-Activated Protein Kinase 3 (MAPK 3) (AID 2283177)
Method in brief: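 Cell-free enzymatic assay with recombinant protein and specific substrate; fluorescence and electrophoretic mobility shift read-out 1 h after dosing. Primary screen duplicate at 25 uM; actives then run in concentration-response up to 50 uM, loss of signal versus DMSO.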

[6] = target: human MAP Kinase-Activated Protein Kinase 2 (MAPKAPK2), MAPKAPK2 (gene 9261) (UniProt P49137); assay: NVS_ENZ_hMAPKAPK2: NovaScreen (NVS) Enzymatic Assay for human MAP Kinase-Activated Protein Kinase 2 (MAPKAPK2) (AID 2283178)
Method in brief: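 Cell-free recombinant human MAPKAPK2 activity measured by fluorescence with electrophoretic mobility shift separation of substrate and product, 1 hr after dosing. Loss of signal versus DMSO; primary screen at 25 uM, concentration-response up to 50 uM.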

[7] = target: human Matrix Metalloproteinase-7 (MMP7), MMP7 (gene 4316) (UniProt P09237); assay: NVS_ENZ_hMMP7: NovaScreen (NVS) Enzymatic Assay for human Matrix Metalloproteinase-7 (MMP7) (AID 2283183)
Method in brief: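 Cell-free fluorescence enzymatic assay read 1 h after compound addition, activity loss analyzed against DMSO. Primary duplicate testing at 25 uM; compounds meeting threshold rerun in singleton concentration-response up to 50 uM.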

[8] = target: cAMP-dependent protein kinase catalytic subunit alpha (Homo sapiens) (UniProt P17612); assay: NVS_ENZ_hPKA: NovaScreen (NVS) Enzymatic Assay for human Protein Kinase A (PKA) (AID 2283192)
Method in brief: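 Recombinant human PKA with specific fluorescent substrate, product separated by electrophoretic mobility shift, read 1 h after dosing. Primary screen at 25 uM in duplicate; actives then run in concentration-response up to 50 uM, activity relative to DMSO.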

[9] = target: human Protein Tyrosine Phosphatase Non-receptor Type 1 (PTPN1), PTPN1 (gene 5770) (UniProt P18031); assay: NVS_ENZ_hPTPN1: NovaScreen (NVS) Enzymatic Assay for human Protein Tyrosine Phosphatase Non-receptor Type 1 (PTPN1) (AID 2283201)
Method in brief: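 Cell-free fluorogenic-substrate activity assay on recombinant enzyme, read 1.33 h after dosing by fluorescence and electrophoretic mobility shift; loss of signal vs DMSO baseline. Primary screen in duplicate at 25 uM, hits then run in concentration-response up to 50 uM.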

[10] = target: Tyrosine-protein phosphatase non-receptor type 11 (Homo sapiens) (UniProt Q06124); assay: NVS_ENZ_hPTPN11: NovaScreen (NVS) Enzymatic Assay for human Protein Tyrosine Phosphatase Non-receptor Type 11 (PTPN11) (AID 2283202)
Method in brief: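 Recombinant human PTPN11 activity on a fluorescent substrate, with substrate/product separated by electrophoretic mobility shift; read 0.5 h after dosing, loss of signal vs DMSO. Duplicate 25 uM screen, then concentration-response up to 50 uM.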

[11] = target: Tyrosine-protein phosphatase non-receptor type 12 (Homo sapiens) (UniProt Q05209); assay: NVS_ENZ_hPTPN12: NovaScreen (NVS) Enzymatic Assay for human Protein Tyrosine Phosphatase Non-receptor Type 12 (PTPN12) (AID 2283204)
Method in brief: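 Single-concentration duplicates (25 uM) preceded singleton concentration-response up to 50 uM for chemicals passing threshold. Cell-free recombinant PTPN12 activity was read 1.33 h after dosing via fluorescence after mobility-shift separation; loss of signal versus DMSO.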

[12] = target: Tyrosine-protein phosphatase non-receptor type 13 (Homo sapiens) (UniProt Q12923); assay: NVS_ENZ_hPTPN13: NovaScreen (NVS) Enzymatic Assay for human Protein Tyrosine Phosphatase Non-receptor Type 13 (PTPN13) (AID 2283205)
Method in brief: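 Cell-free assay of recombinant human PTPN13 with a fluorescent substrate, product separated by electrophoretic mobility shift and read 0.5 h after dosing. Primary screen at 25 uM in duplicate, then concentration-response up to 50 uM. Loss of signal fitted against DMSO.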

[13] = target: Tyrosine-protein phosphatase non-receptor type 14 (Homo sapiens) (UniProt Q15678); assay: NVS_ENZ_hPTPN14: NovaScreen (NVS) Enzymatic Assay for human Protein Tyrosine Phosphatase Non-receptor Type 14 (PTPN14) (AID 2283206)
Method in brief: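 Cell-free recombinant human PTPN14 with fluorescent substrate, read 0.5 h after dosing by fluorescence and electrophoretic mobility shift separating substrate from product. Primary screen at 25 uM in duplicate; hits run to 50 uM maximum; loss of signal versus DMSO.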

[14] = target: human Protein Tyrosine Phosphatase Non-receptor Type 4 (PTPN4), PTPN4 (gene 5775) (UniProt P29074); assay: NVS_ENZ_hPTPN4: NovaScreen (NVS) Enzymatic Assay for human Protein Tyrosine Phosphatase Non-receptor Type 4 (PTPN4) (AID 2283208)
Method in brief: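 Cell-free assay of PTPN4 expressed in Sf9 cells, using a fluorescent substrate with product separated by mobility shift; read 1.33 h after dosing. Single-point screen at 25 uM, then concentration-response up to 50 uM. Loss of signal relative to DMSO.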

[15] = target: human Protein Tyrosine Phosphatase Non-receptor Type 9 (PTPN9), PTPN9 (gene 5780) (UniProt P43378); assay: NVS_ENZ_hPTPN9: NovaScreen (NVS) Enzymatic Assay for human Protein Tyrosine Phosphatase Non-receptor Type 9 (PTPN9) (AID 2283209)
Method in brief: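 Sf9-expressed enzyme in a cell-free assay, fluorescence read 1.33 h after dosing with mobility-shift separation of substrate and product. Tested at 25 uM in duplicate, then up to 50 uM; signal loss versus DMSO.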

[16] = target: human Protein Tyrosine Phosphatase Non-receptor Type 6 (PTPN6), PTPN6 (gene 5777) (UniProt P29350); assay: NVS_ENZ_hPTPN6: NovaScreen (NVS) Enzymatic Assay for human Protein Tyrosine Phosphatase Non-receptor Type 6 (PTPN6) (AID 2283210)
Method in brief: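 Cell-free assay with recombinant PTPN6 expressed in SF9 cells, fluorescent substrate, product separated from substrate by electrophoretic mobility shift; read 1.33 hours after dosing. Primary screen in duplicate at 25 uM, actives retested in concentration series; DMSO baseline.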

[17] = target: human Protein Tyrosine Phosphatase Receptor Type M (PTPRM), PTPRM (gene 5797) (UniProt P28827); assay: NVS_ENZ_hPTPRM: NovaScreen (NVS) Enzymatic Assay for human Protein Tyrosine Phosphatase Receptor Type M (PTPRM) (AID 2283215)
Method in brief: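 Cell-free recombinant PTPRM with fluorogenic substrate; product separated from substrate by electrophoretic mobility shift and read by fluorescence, 1.33 h after dosing. Primary screen single concentration (25 uM) in duplicate; actives retested in concentration series; loss of signal versus DMSO.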

[18] = target: human SRC Proto-Oncogene, Non-receptor Tyrosine Kinase (SRC), SRC (gene 6714) (UniProt P12931); assay: NVS_ENZ_hSRC: NovaScreen (NVS) Enzymatic Assay for human SRC Proto-Oncogene, Non-receptor Tyrosine Kinase (SRC) (AID 2283223)
Method in brief: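 Cell-free kinase activity assay with fluorescent substrate, product separated by electrophoretic mobility shift, read 1 h after dosing. Duplicate single point at 25 uM, then concentration-response up to 50 uM; loss of signal versus DMSO.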

[19] = target: human Tropomyosin Receptor Kinase A (TRKA), NTRK1 (gene 4914) (UniProt P04629); assay: NVS_ENZ_hTrkA: NovaScreen (NVS) Enzymatic Assay for human Tropomyosin Receptor Kinase A (TRKA) (AID 2283224)
Method in brief: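 Recombinant human TrkA activity read after 1 h by fluorescence with electrophoretic mobility shift separating substrate and product. Primary screen in duplicate at 25 uM; actives were rerun in concentration-response up to 50 uM. Loss of signal versus DMSO.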

[20] = target: human Vascular Endothelial Growth Factor Receptor 3 (VEGFR3), FLT4 (gene 2324) (UniProt P35916); assay: NVS_ENZ_hVEGFR3: NovaScreen (NVS) Enzymatic Assay for human Vascular Endothelial Growth Factor Receptor 3 (VEGFR3) (AID 2283229)
Method in brief: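 Cell-free recombinant VEGFR3 kinase reaction with fluorescent substrate, read 1 h after dosing by electrophoretic mobility shift separation of substrate and product. Single-concentration duplicate screen at 25 uM, then concentration-response up to 50 uM; loss of activity versus DMSO.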

[21] = target: Adenosine receptor A1 (Bos taurus) (UniProt P28190); assay: NVS_GPCR_bAdoR_NonSelective: NovaScreen (NVS) G Protein-Coupled Receptor Assay for bovine Adenosine Receptor (AdoR), Non-selective Binding (AID 2283244)
Method in brief: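 Bovine striatal membranes, radioligand displacement binding, 1 h after dosing, filter-based scintillation counting. Screened in duplicate at 25 uM, then concentration-response up to 50 uM; loss of specific binding relative to DMSO.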

[22] = target: guinea pig Leukotriene D4 Receptor (LTD4), CYSLTR1 (gene 100135514) (UniProt Q2NNR5); assay: NVS_GPCR_gLTD4: NovaScreen (NVS) G Protein-Coupled Receptor Assay for guinea pig Leukotriene D4 Receptor (LTD4) (AID 2283248)
Method in brief: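 Radioligand displacement on guinea pig lung membranes, 1 h incubation, filtration and scintillation counting; DMSO as negative control. Duplicate 25 uM primary screen, then singleton concentration-response up to 50 uM.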

[23] = target: human Adrenergic, Alpha 2c Receptor (Adra2C), ADRA2C (gene 152) (UniProt P18825); assay: NVS_GPCR_hAdra2C: NovaScreen (NVS) G Protein-Coupled Receptor Assay for human Adrenergic, Alpha 2c Receptor (Adra2C) (AID 2283259)
Method in brief: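 Radioligand binding on Sf9-expressed receptor membranes, 1 h after chemical dosing, filter-based scintillation read-out. Loss of binding fitted positively versus DMSO; primary duplicate screen at 25 uM, actives retested in concentration series.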

[24] = target: rat Glutamate, MK-801 Agonist Site (GluNMDA_MK801), Grin1 (gene 24408) (UniProt P35439); assay: NVS_LGIC_rGluNMDA_MK801_Agonist: NovaScreen (NVS) Ligand-Gated Ion Channel Assay for rat Glutamate, MK-801 Agonist Site (GluNMDA_MK801) (AID 2283340)
Method in brief: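 Radioligand binding at MK-801 site in rat forebrain membranes, 1.5 h incubation, filter-based scintillation counting. Initially 25 uM in duplicate; actives then run in concentration-response up to 50 uM, fitted for gain of signal versus DMSO.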

[25] = target: human Norepinephrine Transporter (NET), SLC6A2 (gene 6530) (UniProt P23975); assay: NVS_TR_hNET: NovaScreen (NVS) Transporter Assay for human Norepinephrine Transporter (NET) (AID 2283377);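 also: cell-free membrane protein extracted from CHO cells expressing human NET; displacement of radioligand from human NET seen as loss of scintillation signal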
Method in brief: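 Scintillation counts of filter-retained radioligand served as the readout, taken 1 h post-dosing in a cell-free CHO-derived system. Test chemicals ran first at 25 uM in duplicate; confirmed hits were retested across concentrations.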

[26] = Tanguay_ZF_120hpf_EYE_legacy: (Legacy) Oregon State University Tanguay Lab 120 Hour Post-fertilization zebrafish Assay for Eye Malformation (AID 2283636)
Method in brief: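 Read-out is binary presence or absence of eye malformation, scored by brightfield microscopy at 120 hpf. Single larvae were exposed from 6 hpf in embryo medium containing 0.64% DMSO, with DMSO as baseline.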

[27] = CCTE_Deisenroth_AIME_384WELL_CTox_Active: Cytotoxicity Assessment (CTOX) in CCTE's 384-well Estrogen Receptor Transactivation Assay with AIME metabolic competence (metabolism positive), Deisenroth Lab (AID 2284037);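 also: chemicals first conditioned 2 h by alginate-bound induced rat liver S9 before cells; activity means signal loss indicating cell death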
Method in brief: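 Cytotoxicity in VM7Luc4E2 breast cells, 24 hour, measured as protease-substrate fluorescence loss, after 2-hour metabolic conditioning with induced rat hepatic S9 in alginate microspheres. Concentrations 0.002 - 200 uM, 10 points, bidirectional fitting.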

Measured: AC50

CCCCCCCCCCCCOS(=O)(=O)O
inactive: [1] | [3] | [4] | [6] | [13] | [18] | [21] | [26]
inconclusive: Caspase-3 (Homo sapiens) 25 µM | [7] 0.0806 µM | [24] 0.428 µM | [25] 1.61 µM
active: [2] 32.9 µM | [5] 18.1 µM | [8] 42.4 µM | [9] 22.7 µM | [10] 38.4 µM | [11] 11.9 µM | [12] 46.3 µM | [14] 10.7 µM | [15] 16.8 µM | [16] 25 µM | [17] 25 µM | [19] 26 µM | [20] 29.3 µM | [22] 8.99 µM | [23] 16.4 µM | [27] 143 µM
